The supplement of paper PMC8728848
The list shows a part of the results.

Tests used:
Assay in all cases: glycan array binding signal (z-score within array); higher = stronger binding
Conditions in all cases: glycan notation: IUPAC condensed, linker removed
[1] = target: GlcNAc(b1-2)Gal(b1-3)GalNAc
Summary of the method: (§1)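 Negative Z-scores can be read as non-binding. The Z-score is calculated within each array and then averaged across arrays of one protein sequence at different concentrations or buffers and across linkers. Arrays, 3228 in all, were curated from the Consortium for Functional Glycomics database and kept only where the protein sequence was available.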

[2] = target: GlcNAc(b1-2)Man(a1-3)[GlcNAc(b1-2)Man(a1-6)]Man(b1-4)GlcNAc(b1-4)GlcNAc
Summary of the method: as §1

[3] = target: GlcNAc(b1-2)Man(a1-3)[GlcNAc(b1-2)Man(a1-6)]Man(b1-4)GlcNAc(b1-4)[Fuc(a1-6)]GlcNAc
Summary of the method: as §1

[4] = target: GlcNAc(b1-2)[GlcNAc(b1-4)]Man(a1-3)[GlcNAc(b1-2)Man(a1-6)]Man(b1-4)GlcNAc(b1-4)GlcNAc
Summary of the method: as §1

[5] = target: GlcNAc(b1-3)Gal
Summary of the method: as §1

[6] = target: GlcNAc(b1-3)Gal(b1-3)GalNAc
Summary of the method: as §1

[7] = target: GlcNAc(b1-3)Gal(b1-4)Glc
Summary of the method: as §1

[8] = target: GlcNAc(b1-3)Gal(b1-4)GlcNAc
Summary of the method: as §1

[9] = target: GlcNAc(b1-3)Gal(b1-4)GlcNAc(b1-3)Gal(b1-4)GlcNAc
Summary of the method: as §1

[10] = target: GlcNAc(b1-3)GalNAc
Summary of the method: as §1

[11] = target: GlcNAc(b1-3)Man
Summary of the method: as §1

[12] = target: GlcNAc(b1-3)[GlcNAc(b1-4)][GlcNAc(b1-6)]GlcNAc
Summary of the method: as §1

[13] = target: GlcNAc(b1-3)[GlcNAc(b1-6)]Gal(b1-4)GlcNAc
Summary of the method: as §1

[14] = target: GlcNAc(b1-3)[GlcNAc(b1-6)]GalNAc
Summary of the method: as §1

[15] = target: GlcNAc(b1-4)Gal(b1-4)GlcNAc
Summary of the method: as §1

[16] = target: GlcNAc(b1-4)GlcNAc
Summary of the method: as §1

[17] = target: GlcNAc(b1-4)GlcNAc(b1-4)GlcNAc
Summary of the method: as §1

[18] = target: GlcNAc(b1-4)GlcNAc(b1-4)GlcNAc(b1-4)GlcNAc(b1-4)GlcNAc
Summary of the method: as §1

[19] = target: GlcNAc(b1-4)GlcNAc(b1-4)GlcNAc(b1-4)GlcNAc(b1-4)GlcNAc(b1-4)GlcNAc
Summary of the method: as §1

[20] = target: GlcNAc(b1-4)[GlcNAc(b1-6)]GalNAc
Summary of the method: as §1

[21] = target: GlcNAc(b1-6)Gal(b1-4)GlcNAc
Summary of the method: as §1

[22] = target: GlcNAc(b1-6)GalNAc
Summary of the method: as §1

[23] = target: GlcNAc3Prop(b1-4)GlcNAc
Summary of the method: as §1

[24] = target: GlcNAc6S(b1-3)Gal(b1-4)GlcNAc
Summary of the method: as §1

[25] = target: Kdn(a2-3)Gal(b1-3)GalNAc
Summary of the method: as §1

[26] = target: Kdn(a2-3)Gal(b1-3)GlcNAc
Summary of the method: as §1

[27] = target: Kdn(a2-3)Gal(b1-4)Glc
Summary of the method: as §1

[28] = target: Kdn(a2-3)Gal(b1-4)GlcNAc
Summary of the method: as §1

[29] = target: Kdn(a2-3)Gal(b1-4)[Fuc(a1-3)]GlcNAc
Summary of the method: as §1

[30] = target: Kdn(a2-6)Gal(b1-4)GlcNAc
Summary of the method: as §1

[31] = target: Man(a1-2)Man(a1-2)Man(a1-3)Man
Summary of the method: as §1

[32] = target: Man(a1-2)Man(a1-2)Man(a1-6)[Man(a1-3)]Man
Summary of the method: as §1

[33] = target: Man(a1-2)Man(a1-3)Man
Summary of the method: as §1

[34] = target: Man(a1-2)Man(a1-3)[Man(a1-2)Man(a1-6)]Man
Summary of the method: as §1

[35] = target: Man(a1-2)Man(a1-3)[Man(a1-2)Man(a1-6)]Man(a1-6)[Man(a1-2)Man(a1-2)Man(a1-3)]Man
Summary of the method: as §1

[36] = target: Man(a1-2)Man(a1-3)[Man(a1-2)Man(a1-6)]Man(a1-6)[Man(a1-2)Man(a1-2)Man(a1-3)]Man(b1-4)GlcNAc(b1-4)GlcNAc
Summary of the method: as §1

[37] = target: Man(a1-2)Man(a1-3)[Man(a1-6)]Man(a1-6)[Man(a1-2)Man(a1-3)]Man(b1-4)GlcNAc(b1-4)GlcNAc
Summary of the method: as §1

[38] = target: Man(a1-2)Man(a1-6)[Man(a1-3)]Man(a1-6)[Man(a1-2)Man(a1-2)Man(a1-3)]Man
Summary of the method: as §1

B1: PEB4 (Campylobacter jejuni), A1VYV6 (protein)
chain: MKKFSLVAAALIAGVALNVNAATVATVNGKSISDAEVSEFFAPMLRGQDFKTLPDNQKKALIQQYIMQDLILQDAKKQNLEKDPLYTKELDRAKDAILVNVYQEKILNTIKIDAAKVKAFYDQNKDKYVKPARVQAKHILVATEKEAKDIINELKGLKGKELDAKFSELAKEKSIDPGSKNQGGELGWFDQSTMVKPFTDAAFALKNGTITTTPVKTNFGYHVILKENSQAKGQIKFDEVKQGIENGLKFEEFKKVINQKGQDLLNSAKVEYK
glycan array binding signal (z-score) [1]: -0.782
glycan array binding signal (z-score) [2]: -0.78
glycan array binding signal (z-score) [3]: 2.17
glycan array binding signal (z-score) [4]: 1.67
glycan array binding signal (z-score) [5]: -0.157
glycan array binding signal (z-score) [6]: 0.093
glycan array binding signal (z-score) [7]: -1.32
glycan array binding signal (z-score) [8]: -1.54
glycan array binding signal (z-score) [9]: -1.1
glycan array binding signal (z-score) [10]: -1.38
glycan array binding signal (z-score) [11]: -1.02
glycan array binding signal (z-score) [12]: 0.152
glycan array binding signal (z-score) [13]: -0.204
glycan array binding signal (z-score) [14]: -1.04
glycan array binding signal (z-score) [15]: -1.28
glycan array binding signal (z-score) [16]: -0.48
glycan array binding signal (z-score) [17]: -0.441
glycan array binding signal (z-score) [18]: -1.65
glycan array binding signal (z-score) [19]: -1.13
glycan array binding signal (z-score) [20]: -0.279
glycan array binding signal (z-score) [21]: 0.846
glycan array binding signal (z-score) [22]: -0.166
glycan array binding signal (z-score) [23]: -0.606
glycan array binding signal (z-score) [24]: -0.661
glycan array binding signal (z-score) [25]: 0.086
glycan array binding signal (z-score) [26]: -0.453
glycan array binding signal (z-score) [27]: 0.486
glycan array binding signal (z-score) [28]: -0.423
glycan array binding signal (z-score) [29]: -1.08
glycan array binding signal (z-score) [30]: -0.028
glycan array binding signal (z-score) [31]: 2.37
glycan array binding signal (z-score) [32]: -0.758
glycan array binding signal (z-score) [33]: 1.6
glycan array binding signal (z-score) [34]: -0.015
glycan array binding signal (z-score) [35]: -0.604
glycan array binding signal (z-score) [36]: -0.404
glycan array binding signal (z-score) [37]: 0.333
glycan array binding signal (z-score) [38]: 0.888
